Measurements: PubChem BioAssay AID540256 (National Center for Advancing Translational Sciences (NCATS), 2011)
Out of some 300,000 compounds screened, about 3,700 (1.2%) were called active. The inconclusive results got no clear call from the source; some entries with a clear call stand among them for comparison. Calls come from the whole dose curve; tested in HEK293 cells. Potencies beside an inconclusive call are fits to weak or partial responses and may not hold up.

Experiment: qHTS for Inhibitors of binding or entry into cells for Lassa Virus; note: nearly all actives have a fitted effect of over 50% in size
Conditions: Lassa virus pseudotype entry inhibition, cell reporter; series mostly up to 37.9 µM
Potency is the fitted concentration of half-maximal effect.

Structure (SMILES) | Potency
CC(C)CN(C(=O)c1ccc2c(c1)OCCO2)c1c(N)n(Cc2ccccc2)c(=O)[nH]c1=O | inactive
CCn1c(=O)cc(SCC(=O)Nc2cccc(SC)c2)c2ccccc21 | inconclusive: 29.1 µM [inhibitor, single point]
O=C(c1ccc(Cl)cc1)c1cc([N+](=O)[O-])ccc1N1CCOCC1 | inconclusive: 0.891 µM [inhibitor, full curve, poor fit]
COc1ccc(NC(=O)c2c(-c3c(Cl)cccc3Cl)noc2C)cn1 | inactive
CC(=O)CCc1oc2ccc(C)cc2c1-c1ccccc1 | active: 3.98 µM
O=S(=O)(c1ccccc1)c1cnn(-c2ccccc2)c1-c1ccc(Cl)cc1 | inactive
Cc1ccc(C)c(NC(=O)C(Sc2nc3ccccc3c(=O)n2CC(C)C)c2ccccc2)c1 (centres undefined) | inconclusive: 2.82 µM [inhibitor, partial curve, poor fit]
O=C(OCc1ccco1)c1ccc2c(c1)N(Cc1cccc(F)c1)C(=O)c1ccccc1S2 | inconclusive: 35.5 µM [inhibitor, single point]
CN(c1ccc(C(=O)NCCc2ccccc2)cc1)S(C)(=O)=O | inconclusive: 8.2 µM [inhibitor, single point]
Brc1ccc(-c2ccc(/C=N/Nc3nc(N4CCOCC4)nc(N4CCOCC4)n3)o2)cc1 | inactive
COc1ccccc1OCC(=O)N/N=C/c1cccc2cccnc12 | inactive
COc1ccc(C(=O)NCCCOC(=O)c2ccc(OC)cc2)cc1 | inconclusive: 35.5 µM [inhibitor, single point]
Cc1ccc(C)c(NC(=O)CN(C)C(=O)c2cccc(S(=O)(=O)N3CCCC3)c2)c1 | inactive
O=C(c1ccc(Cl)cc1)c1coc2ccc(O)cc12 | inconclusive: 35.5 µM [inhibitor, single point]
COc1ccc(OC)c2sc(N3CCN(C(=O)c4ccc5ncsc5c4)CC3)nc12 | inconclusive: 35.5 µM [inhibitor, single point]
CC1CN(S(=O)(=O)c2cccc(C(=O)N=c3sccn3C)c2)CC(C)O1 (centres undefined) | inconclusive: 14.1 µM [inhibitor, single point]
CCOC(=O)Oc1ccc(C(=O)OCCCN(C)C)cc1OC | inactive
N=c1n(CCO)c2ccccc2n1Cc1ccccc1F | inactive
COc1ccc2nc(C)c3c(c2c1)OC(C(C)(Cl)Br)C3 (centres undefined) | inactive
O=C1CC(N2CCN(c3ccccc3)CC2)C(=O)N1Cc1ccc(Cl)cc1 (centres undefined) | inconclusive: 16.4 µM [inhibitor, partial curve, poor fit]
CCC1CN(C(=O)Nc2ccccc2C(F)(F)F)c2ccccc2O1 (centres undefined) | inconclusive: 7.94 µM [inhibitor, partial curve]
CCn1c(SCC(=O)NC2CC2)nnc1-c1cccc(OC)c1 | inconclusive: 1.26 µM [activator, single point]
CCCN(CC(=O)Nc1ccc(F)c(F)c1F)CC(=O)Nc1c(Cl)cccc1Cl | inconclusive: 35.5 µM [inhibitor, single point]

Some of the entries so far, as labelled records:
CCC1CN(C(=O)Nc2ccccc2C(F)(F)F)c2ccccc2O1 (centres undefined)
  Potency: inconclusive: 7.94 µM [inhibitor, partial curve]
CCn1c(SCC(=O)NC2CC2)nnc1-c1cccc(OC)c1
  Potency: inconclusive: 1.26 µM [activator, single point]
CCCN(CC(=O)Nc1ccc(F)c(F)c1F)CC(=O)Nc1c(Cl)cccc1Cl
  Potency: inconclusive: 35.5 µM [inhibitor, single point]

Following part.

Structure (SMILES) | Potency
CC(C)Oc1ccc(NC(=O)c2ccncc2)cc1 | inactive
Cc1c(CNC2CCC(C)CC2)c(C(=O)O)c(C)n1Cc1ccccc1F (centres undefined) | inactive
CN(C)c1ccc(N=Nc2cccc(F)c2)cc1 | inconclusive: 2.82 µM [activator, partial curve, poor fit]
Cc1ccc(S(=O)(=O)N2CCC(C(=O)OC(C)C(=O)NCc3ccc4c(c3)OCO4)CC2)cc1 (centres undefined) | inconclusive: 16.4 µM [activator, partial curve, poor fit]
COc1ccc(-n2ncc(S(=O)(=O)c3ccccc3)c2-c2ccc(Cl)cc2)cc1 | inconclusive: 16.4 µM [inhibitor, single point]
C=CCn1c(CNc2ccc(C)cc2)nnc1SCC(=O)N/N=C/c1ccc(O)cc1O | inconclusive: 2.51 µM [inhibitor, partial curve, poor fit]
COc1ccc(S(=O)(=O)N(CC(=O)Nc2ccc(OC)cc2OC)c2ccc(Cl)cc2)cc1 | inconclusive: 11.2 µM [inhibitor, partial curve, poor fit]
O=C(CCN1C(=O)/C(=C/c2ccccc2)SC1=S)N1CCCCCC1 | inconclusive: 4.47 µM [inhibitor, full curve, poor fit]
Cc1ccc(C(C)c2c(C)c([N+](=O)[O-])cc(C)c2[N+](=O)[O-])cn1 (centres undefined) | inconclusive: 11.2 µM [inhibitor, single point]
O=C(Nc1ccc(Cn2cccn2)cc1)c1ccc(COc2ccccc2Br)cc1 | inconclusive: 29.1 µM [inhibitor, single point]
O=c1nc(N/N=C/c2c[nH]c3ccccc23)cn[nH]1 | inconclusive: 35.5 µM [inhibitor, single point]
CN(C)S(=O)(=O)c1ccc(C(=O)NCCN2C(=O)S/C(=C\c3cccnc3)C2=O)cc1 | inactive
O=C1CC(c2ccccc2)CC(O)=C1C=Nc1ccccc1 (centres undefined) | inconclusive: 11.2 µM [inhibitor, partial curve]
COC(=O)[C@H](C)NC(=O)Nc1ccc(OC)c(OC)c1 | inactive
CCN(CC)c1ccc(S(=O)(=O)N2CCOCC2)cc1NC(=O)COC(=O)/C=C/c1ccc(O)c(OC)c1 | inconclusive: 14.1 µM [inhibitor, single point]
CCOC(=O)N1CCC(N2Cc3cccc(C(=O)NCc4ccc(OC)cc4)c3C2=O)CC1 | inconclusive: 16.4 µM [inhibitor, partial curve]
C=CCn1c(SCc2c(C)noc2C)nc2ccccc2c1=O | inconclusive: 0.291 µM [inhibitor, full curve, poor fit]
CCC1N=C(SC)NC(C)=C1C(=O)c1ccccc1 (centres undefined) | inconclusive: 0.92 µM [inhibitor, full curve, poor fit]
CC1SCC(NC(=O)c2ccc(Cl)cc2)CS1 (centres undefined) | inconclusive: 12.6 µM [activator, partial curve, poor fit]
Cc1ccc(Cn2nnc3c(=O)[nH]c(C4CCN(C(=O)c5cccs5)CC4)nc32)cc1 | active: 2.91 µM
COc1ccc(NC(=O)CCSc2ccc(C)cc2)cc1S(=O)(=O)Nc1ccccc1Cl | active: 12.6 µM
O=S(=O)([N-]c1nc2ccccc2nc1-[n+]1ccccc1)c1ccc(Cl)cc1 | inactive
CCOc1ccccc1-c1noc(CCCC(=O)Nc2cccc(C(F)(F)F)c2)n1 | inactive

Structure (SMILES) | Potency
CC1(C(=O)N/N=C/c2c(F)c(F)c(F)c(F)c2F)CC1(Cl)Cl (centres undefined) | inconclusive: 35.5 µM [inhibitor, single point]
Cc1ccc(-c2noc(C3CCCN(C(=O)c4c(F)cccc4F)C3)n2)cc1 (centres undefined) | inactive
COC(=O)c1ccc(C2C=C(c3ccc(Cl)cc3)Nc3nc4ccccc4n32)cc1 (centres undefined) | inconclusive: 31.6 µM [activator, partial curve, poor fit]
COc1cccc(/C=N/NC(=O)Cn2cnc3c2c(=O)n(C)c(=O)n3C)c1 | inconclusive: 1.26 µM [inhibitor, single point]
COc1ccc(S(=O)(=O)N(CCCN2CCOCC2)Cc2cccc(OC)c2OC)cc1 | inconclusive: 1.26 µM [inhibitor, single point]
Oc1ccc(-c2onc(C(F)(F)F)c2-c2cscn2)c(O)c1 | inactive
O=C(N/N=C/C(Br)=C/c1ccccc1)C(O)c1ccccc1 (centres undefined) | inconclusive: 20 µM [inhibitor, partial curve, poor fit]
CCOC(=O)N1CCC(N(CCN(C)C)C(=S)Nc2cccc(OC)c2)CC1 | inactive
CC(/C=N/NC(=O)c1cc(-c2ccccc2)nc2ccccc12)=C\c1ccco1 | inconclusive: 5.01 µM [inhibitor, full curve, poor fit]
CCCCNC1=CC(=O)C(NCCCC)=CC1=O | inactive
COc1cccc(CN(CC2CCCO2)S(=O)(=O)c2ccc(S(=O)(=O)N(C)C)cc2)c1 (centres undefined) | inconclusive: 16.4 µM [inhibitor, partial curve]
O=C(Nc1cc(S(=O)(=O)N2CCCCCC2)ccc1OCC(F)(F)F)c1cnccn1 | inactive
Cc1cc(C)n(CCc2nc3c4ccccc4nc(SCc4ccc(Cl)cc4)n3n2)n1 | inactive
COc1ccc(C(=O)N2CCC(C(=O)NCc3ccccn3)CC2)cc1 | inconclusive: 0.708 µM [activator, single point]
O=C(NC1(C(F)(F)F)N=C(c2ccccc2)N(C2CCCCC2)C1=O)c1ccc(F)cc1 (centres undefined) | inactive
COC1C(O)C(C)OC(OC2C(Oc3cccc4c(O)c5c(=O)oc6ccc(C)c7c(=O)oc(c34)c5c67)OC(C)C(O)C2O)C1O (centres undefined) | inconclusive: 14.1 µM [inhibitor, partial curve, poor fit]
Cc1cccc(C)c1NC(=O)CCS(=O)(=O)c1ccc(Br)cc1 | inactive
CC1CN(C(=O)c2cccc(COc3ccc(Br)cc3)c2)CC(C)O1 (centres undefined) | inconclusive: 6.31 µM [activator, single point]
O=C(C1CCN(Cc2ccccc2)CC1)N1CCN(C/C=C/c2ccccc2)CC1 | inconclusive: 35.5 µM [inhibitor, single point]
CCOc1ccc(NC(=O)CC2C(=O)N(c3ccc(C)cc3)C(=O)N2C2CCCCC2)cc1 (centres undefined) | inconclusive: 35.5 µM [inhibitor, single point]
O=C(Nc1cccnc1)OCc1ccccc1 | inactive
O=C(N/C(=C/c1ccco1)C(=O)N1CCCCCC1)c1cccs1 | inconclusive: 3.66 µM [activator, single point]
Cc1ccc(N2CC(C(=O)Nc3nnc(SCC(N)=O)s3)CC2=O)cc1 (centres undefined) | inactive
